Assay results as given in PMC6039025.
These are yes or no findings as the source states them, for the method shown. Some results given as binding are weak or reduced against the parent protein; the word gives no strength. Where a sequence is shown, tags or fusion partners need not be part of it. Each block holds one binder with its values, some of them ahead of it.

Biological target: T1, Smc4-K191M, 3xStrepTagII-tagged (S. cerevisiae) (UniProt Q12267)
T1 sequence: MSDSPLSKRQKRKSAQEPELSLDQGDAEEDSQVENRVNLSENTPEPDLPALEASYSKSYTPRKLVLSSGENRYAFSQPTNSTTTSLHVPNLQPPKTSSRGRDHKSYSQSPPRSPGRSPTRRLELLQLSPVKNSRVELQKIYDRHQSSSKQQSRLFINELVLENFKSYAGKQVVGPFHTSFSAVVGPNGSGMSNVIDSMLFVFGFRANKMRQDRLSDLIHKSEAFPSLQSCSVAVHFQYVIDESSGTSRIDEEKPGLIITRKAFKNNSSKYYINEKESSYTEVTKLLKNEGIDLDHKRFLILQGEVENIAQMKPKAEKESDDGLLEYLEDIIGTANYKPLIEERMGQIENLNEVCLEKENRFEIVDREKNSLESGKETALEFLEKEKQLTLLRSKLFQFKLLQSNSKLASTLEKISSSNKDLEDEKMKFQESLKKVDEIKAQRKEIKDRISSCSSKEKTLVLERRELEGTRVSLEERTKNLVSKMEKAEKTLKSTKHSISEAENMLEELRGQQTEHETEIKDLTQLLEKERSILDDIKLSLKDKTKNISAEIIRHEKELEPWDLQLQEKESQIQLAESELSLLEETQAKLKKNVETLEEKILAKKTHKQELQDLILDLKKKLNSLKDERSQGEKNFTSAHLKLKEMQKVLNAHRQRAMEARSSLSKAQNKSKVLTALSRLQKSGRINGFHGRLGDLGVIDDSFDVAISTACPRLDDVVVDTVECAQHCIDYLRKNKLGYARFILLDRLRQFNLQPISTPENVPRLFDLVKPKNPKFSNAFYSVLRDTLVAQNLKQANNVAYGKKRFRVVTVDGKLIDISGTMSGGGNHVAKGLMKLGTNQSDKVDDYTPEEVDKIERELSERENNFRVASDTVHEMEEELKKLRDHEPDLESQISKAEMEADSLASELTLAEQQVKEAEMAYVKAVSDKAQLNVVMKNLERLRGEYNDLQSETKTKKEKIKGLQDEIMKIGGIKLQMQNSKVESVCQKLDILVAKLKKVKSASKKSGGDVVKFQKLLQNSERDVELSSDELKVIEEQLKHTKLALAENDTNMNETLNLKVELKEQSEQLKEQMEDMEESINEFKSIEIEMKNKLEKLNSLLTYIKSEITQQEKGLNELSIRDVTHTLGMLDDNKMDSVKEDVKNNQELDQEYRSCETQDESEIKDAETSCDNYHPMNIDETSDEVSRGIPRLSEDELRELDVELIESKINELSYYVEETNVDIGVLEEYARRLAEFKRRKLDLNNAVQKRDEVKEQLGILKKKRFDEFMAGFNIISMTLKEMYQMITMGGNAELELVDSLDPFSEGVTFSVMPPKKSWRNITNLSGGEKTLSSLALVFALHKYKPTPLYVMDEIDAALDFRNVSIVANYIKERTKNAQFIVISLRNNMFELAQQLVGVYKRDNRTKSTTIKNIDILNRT
Assay: tandem affinity co-purification (Ni-NTA, Strep-Trap) + SEC; five condensin subunits co-overexpressed in yeast; extract in 500 mM NaCl, 10 mM Tris-HCl pH 8.0, 10% glycerol; Ni-NTA (His tags on Brn1 and Ycg1), then Strep-Trap HP (3xStrepTagII on Smc4), then Superose 6 10/300 in 200 mM NaCl, 50 mM Tris-HCl pH 8.0; subunits seen by SDS-PAGE and Coomassie staining

binding: binds
B1: Smc2 (protein, UniProt P38989 1-1170)
chain: MKVEELIIDGFKSYATRTVITDWDPQFNAITGLNGSGKSNILDAICFVLGIASMSTVRASSLQDLIYKRGQAGVTKASVTIVFDNTDKSNSPIGFTNSPQISVTRQVVLGGTSKYLINGHRAPQQSVLQLFQSVQLNINNPNFLIMQGKITKVLNMKPSEILSLIEEAAGTKMFEDRREKAERTMSKKETKLQENRTLLTEEIEPKLEKLRNEKRMFLEFQSTQTDLEKTERIVVSYEYYNIKHKHTSIRETLENGETRMKMLNEFVKKTSEEIDSLNEDVEEIKLQKEKELHKEGTISKLENKENGLLNEISRLKTSLSIKVENLNDTTEKSKALESEIASSSAKLIEKKSAYANTEKDYKMVQEQLSKQRDLYKRKEELVSTLTTGISSTGAADGGYNAQLAKAKTELNEVSLAIKKSSMKMELLKKELLTIEPKLKEATKDNELNVKHVKQCQETCDKLRARLVEYGFDPSRIKDLKQREDKLKSHYYQTCKNSEYLKRRVTNLEFNYTKPYPNFEASFVHGVVGQLFQIDNDNIRYATALQTCAGGRLFNVVVQDSQTATQLLERGRLRKRVTIIPLDKIYTRPISSQVLDLAKKIAPGKVELAINLIRFDESITKAMEFIFGNSLICEDPETAKKITFHPKIRARSITLQGDVYDPEGTLSGGSRNTSESLLVDIQKYNQIQKQIETIQADLNHVTEELQTQYATSQKTKTIQSDLNLSLHKLDLAKRNLDANPSSQIIARNEEILRDIGECENEIKTKQMSLKKCQEEVSTIEKDMKEYDSDKGSKLNELKKELKLLAKELEEQESESERKYDLFQNLELETEQLSSELDSNKTLLHNHLKSIESLKLENSDLEGKIRGVEDDLVTVQTELNEEKKRLMDIDDELNELETLIKKKQDEKKSSELELQKLVHDLNKYKSNTNNMEKIIEDLRQKHEFLEDFDLVRNIVKQNEGIDLDTYRERSKQLNEKFQELRKKVNPNIMNMIENVEKKEAALKTMIKTIEKDKMKIQETISKLNEYKRETLVKTWEKVTLDFGNIFADLLPNSFAKLVPCEGKDVTQGLEVKVKLGNIWKESLIELSGGQRSLIALSLIMALLQFRPAPMYILDEVDAALDLSHTQNIGHLIKTRFKGSQFIVVSLKEGMFANANRVFRTRFQDGTSVVSIM

binding: binds
B2: Ycs4 (protein, UniProt Q06156 1-1176)
chain: MSGFSLSEYLTKFQTTDRESYPRLQDPSRELNVIIDQLAVSPEQIDASPDSLEALIDLCHDFPHLTPKLQTQLSYLISSSLSNLSKDIKANLSSNVNFTEIGGLIPQWKRHLEEYGYLIQVLLTFLQDELHKVSSQSTNLNRSAKNSKNDSANVELFKRDCNQMENLLESITKLLEINLSKIFQTTPEKDLFIGLFTRPLFVLLEIEPVTKVSSLKMFIQRILAMCVKNHGQSSSIQSSLMTNLTYFLHLSVFNAELLKLLNDEYNYPQLTEDILKEISTRVFNAKDTTGPKAISNFLIKLSELSPGIMLRQMNLVITLLNNSSITLRCSVVEACGNIVAELAQDPQTMEHYKQQIAVLIELLEERFQDSNPYVRTKAIQGCSKICDLSSKFNKSKAKFTSLAVRSLQDRSSLVRRNSVKLLSKLLLKHPFKAIHGSQLRLSEWEEYLKGSESQLNSTLKKVESQETLNDTIERSLIEEEVEQDEGQCRTELEGSFNKSAELSRIENEVENINATNTSVLMKLKLMIVYYKDAISFIKEIHKSIELISNLLFSKNRNEVLESMDFLVLADAFDIELSEFGIKKMLHLVWMKGTNDEGTSISVHLIECYKQLFLTAPDSCNMQEKAAHIAKNLINLSIGASIADLASLEQLLGMMYEQKLIDQHVINILWAIYNSASKASMQKEQNVNNRDSEKGFSKEQIHGSIIILGMLSLADNEIALKGLESLLNIGLGAVGLKDLTLCRYSCLALERMVPKRSTIITKAINQELEDVAVKKLYAIIINYTKDNEYYPMCEQALSALFTISSKPDILATDLIREKTMMTFGKPEEEDSILSLEQSSRVVSLSQLLFIVGQVAIKTLVYLEKCEAEFKKRKIEAETRNGKVKNQGADVTNTTQDNGGDKELEMIGGTNEDDFTDAIQFVKENELLFGEKSILGKFCPIVEEIVSNSSRFSDPMLQRTATLCLEKLMCLSSKYCEKSLPLLITVMEKSPDPTIRSNAVLGLGDMAVCFNNLVDENTDYLYRRLHDENLMVQRTCLMTVTFLILAGQVKVKGQLGEMAKCLDNPDQGISDMCRLFFTELASKDNAIYNGFIDIFSNLSSDDLLGKESFKKIIKFLLTFIDKERHQKQLNEKLVGRLRKCETQKQWDDIAFVLNNLPYKNEDVTALLEQGFKVVSAKE

binding: binds
B3: Ycg1-3xFLAG-9xHIS (protein, UniProt Q06680 1-1035)
chain: MQDPDGIDINTKIFNSVAEVFQKAQGSYAGHRKHIAVLKKIQSKAVEQGYEDAFNFWFDKLVTKILPLKKNEIIGDRIVKLVAAFIASLERELILAKKQNYKLTNDEEGIFSRFVDQFIRHVLRGVESPDKNVRFRVLQLLAVIMDNIGEIDESLFNLLILSLNKRIYDREPTVRIQAVFCLTKFQDEEQTEHLTELSDNEENFEATRTLVASIQNDPSAEVRRAAMLNLINDNNTRPYILERARDVNIVNRRLVYSRILKSMGRKCFDDIEPHIFDQLIEWGLEDRELSVRNACKRLIAHDWLNALDGDLIELLEKLDVSRSSVCVKAIEALFQSRPDILSKIKFPESIWKDFTVEIAFLFRAIYLYCLDNNITEMLEENFPEASKLSEHLNHYILLRYHHNDISNDSQSHFDYNTLEFIIEQLSIAAERYDYSDEVGRRSMLTVVRNMLALTTLSEPLIKIGIRVMKSLSINEKDFVTMAIEIINDIRDDDIEKQEQEEKIKSKKINRRNETSVDEEDENGTHNDEVNEDEEDDNISSFHSAVENLVQGNGNVSESDIINNLPPEKEASSATIVLCLTRSSYMLELVNTPLTENILIASLMDTLITPAVRNTAPNIRELGVKNLGLCCLLDVKLAIDNMYILGMCVSKGNASLKYIALQVIVDIFSVHGNTVVDGEGKVDSISLHKIFYKVLKNNGLPECQVIAAEGLCKLFLADVFTDDDLFETLVLSYFSPINSSNEALVQAFAFCIPVYCFSHPAHQQRMSRTAADILLRLCVLWDDLQSSVIPEVDREAMLKPNIIFQQLLFWTDPRNLVNQTGSTKKDTVQLTFLIDVLKIYAQIEKKEIKKMIITNINAIFLSSEQDYSTLKELLEYSDDIAENDNLDNVSKNALDKLRNNLNSLIEEINERSETQTKDENNTANDQYSSILGNSFNKSSNDTIEHAADITDGNNTELTKTTVNISAVDNTTEQSNSRKRTRSEAEQIDTSKNLENMSIQDTSTVAKNVSFVLPDEKSDAMSIDEEDKDSESFSEVC

binding: binds
B4: Brn1-3xHA-12xHIS (protein, UniProt P38170 1-754)
chain: MTTQLRYENNDDDERVEYNLFTNRSTMMANFEEWIKMATDNKINSRNSWNFALIDYFYDLDVLKDGENNINFQKASATLDGCIKIYSSRVDSVTTETGKLLSGLAQRKTNGASNGDDSNGGNGEGLGGDSDEANIEIDPLTGMPISNDPDVNNTRRRVYNRVLETTLVEFETIKMKELDQELIIDPLFKKALVDFDEGGAKSLLLNTLNIDNTARVIFDASIKDTQNVGQGKLQRKEEELIERDSLVDDENEPSQSLISTRNDSTVNDSVISAPSMEDEILSLGMDFIKFDQIAVCEISGSIEQLRNVVEDINQAKDFIENVNNRFDNFLTEEELQAAVPDNAEDDSDGFDMGMQQELCYPDENHDNTSHDEQDDDNVNSTTGSIFEKDLMAYFDENLNRNWRGREHWKVRNFKKANLVNKESDLLEETRTTIGDTTDKNTTDDKSMDTKKKHKQKKVLEIDFFKTDDSFEDKVFASKGRTKIDMPIKNRKNDTHYLLPDDFHFSTDRITRLFIKPGQKMSLFSHRKHTRGDVSSGLFEKSTVSANHSNNDIPTIADEHFWADNYERKEQEEKEKEQSKEVGDVVGGALDNPFEDDMDGVDFNQAFEGTDDNEEASVKLDLQDDEDHKFPIRENKVTYSRVSKKVDVRRLKKNVWRSINNLIQEHDSRKNREQSSNDSETHTEDESTKELKFSDIIQGISKMYSDDTLKDISTSFCFICLLHLANEHGLQITHTENYNDLIVNYEDLATTQAAS
